The data set has as its target EGFRvIII (U87-EGFRvIII cell lysate) del30-297 (UniProt P00533). The data set is described as follows: pull-down with anti-EGFR immunoblot. As to conditions: flow cytometry on ice 40 min, pull-down conditions not given, protein in a lysate after overexpression, single-stranded DNA.

For at least one entry, the source does not settle the construct or the ends of the probe. Where cells or extracts were used, other partners may take part.

Turning to “ATCCAGAGTGACGCAGCATGAATCTTTTCTTTTGGTTTTGATATTTATAGTTGGTGAATGGACACGGTGGCTTAGT [U8]”, the binding result is recorded as “binds”.

For “ATCCAGAGTGACGCAGCATTTTGACGCTTTATCCTTTTCTTATGGCGGGATAGTTTCGTGGACACGGTGGCTTAGT [U2]”, the binding result is “binds”.

The values above are taken from publication PMC3948368.
